Data: PubChem BioAssay AID2685 (National Center for Advancing Translational Sciences (NCATS), 2010)
The list shows a part of the results. These are further read-outs of the screen, such as a control signal, another cell line or another target. No call is given for them. The list favours compounds with an active or inconclusive main result. Words in brackets tell the shape of the fitted curve; partial curves, single points and poor fits give uncertain potencies.

Assay: qHTS Assay for Lipid Storage Modulators in Drosophila S3 Cells;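 as to cell number change: cells counted by Cell Tracker Red CMTPX staining in the red channel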
Conditions: BODIPY lipid droplet fluorescence, 18-24 h; for cell number change: measured here: cell count max response, cells fed with added oleic acid
Summary of the method: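 Drosophila S3 cells loaded with oleic acid (400 uM, as added) and compounds at several concentrations; lipid droplets imaged by 488-nm laser-scanning cytometry, 500–530 nm intensity and object ratio to cell channel. Percent activity normalized to 20 uM Triacsin C.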

[1] = measured here: cell number channel AC50, cells fed with added oleic acid
[2] = measured here: lipid fluorescence (Fed channel) AC50, cells fed with added oleic acid

Row | Structure (SMILES) | AC50 [1] | cell number change [%] | AC50 [2]
1 | CN1CCN(C(=O)/C(=C/c2ccc(F)cc2)c2ccsc2)CC1 | 1.84 µM [rising, partial curve] |  | 
2 | O=C(Cn1nc(C(F)(F)F)c2c1CCCC2)NCCN1CCOCC1 | 6.51 µM [falling, single point] | 0.318 | 1.03 µM [falling, full curve]
3 | CCN(CC(=O)NCc1ccc(Cl)cc1)C(=O)/C=C/c1ccccc1 |  | 12.1 | 23.1 µM [rising, single point]
4 | O=S(=O)(NCc1ccccc1)c1cccs1 | 18.4 µM [falling, single point] | -82.6 | 
5 | CCC1CN(C(=O)NCc2ccc(C)cc2)c2cc(C)ccc2O1 (stereo unspecified) | 1.64 µM [rising, partial curve] |  | 29.1 µM [rising, single point]
6 | O=C(Nc1cccnc1)C1CCCN1S(=O)(=O)c1ccc(Cl)c(Cl)c1 (stereo unspecified) |  | -21 | 
7 | Cc1nnc2sc(SCc3ccccc3)nn2c1=O |  | -10.5 | 0.103 µM [falling, full curve, poor fit]
8 | Cc1ccc(/C=N/NC(=O)Cc2ccc(Cl)cc2)s1 |  | -25.2 | 0.58 µM [falling, single point]
9 | O=C(CCNC(=O)Cn1ccc2ccccc2c1=O)NCCc1ccccc1Cl |  | -22.4 | 16.4 µM [falling, partial curve, poor fit]
10 | Cc1ccc(NC(=O)NC2(C(=O)NCc3ccccc3)CCCCC2)cc1 |  | 11.8 | 13 µM [rising, partial curve]
11 | CC(Oc1ccc(Cl)cc1)c1ccnc(N)n1 (stereo unspecified) | 0.58 µM [falling, single point] | 14.3 | 0.58 µM [falling, single point]
12 | COc1cccc(C2CC(c3ccccc3)Nc3ncnn32)c1 (stereo unspecified) | 6.51 µM [rising, single point] |  | 0.651 µM [falling, single point]
13 | CCCn1nnnc1NC(=O)c1ccc(C)cc1Cl | 2.91 µM [rising, partial curve] | -5.27 | 2.91 µM [rising, single point]
14 | Cc1sc2nc[nH]c(=S)c2c1-c1ccccc1 | 29.1 µM [falling, single point] | -56 | 29.1 µM [falling, single point]
15 | COC(=O)c1ccc(OCC2c3cc(OC)c(OC)cc3CCN2C(=O)C2CC2)cc1 (stereo unspecified) |  | 111 | 
16 | COc1cc(NC(=O)SC2=NCCS2)cc(OC)c1 | 6.51 µM [falling, single point] | -1.72 | 6.51 µM [falling, single point]
17 | O=C(c1cn(-c2ccccc2)nc1-c1ccc(F)cc1)N1CCCCC1 |  |  | 29.1 µM [rising, single point]
18 | CC1=NN(c2ccccc2)C(=O)/C1=C/c1cccc(C)c1 |  |  | 0.58 µM [rising, single point]
19 | Cc1ccc(C)c(-c2nnc(NC(=O)c3ccc([N+](=O)[O-])o3)o2)c1 |  |  | 1.3 µM [rising, single point]
20 | COc1ccc(C2=NN(CN3C(=O)C(=O)c4ccccc43)C(c3ccc(C)cc3)C2)cc1 (stereo unspecified) |  | -68.5 | 0.731 µM [rising, partial curve]
21 | Cc1cc(C)c2[nH]c(=O)c(C(c3nnnn3Cc3ccc4c(c3)OCO4)N3CCCCC3)cc2c1 (stereo unspecified) |  | -7.64 | 3.66 µM [rising, partial curve]

Single records, as listed above:
`O=C(Nc1cccnc1)C1CCCN1S(=O)(=O)c1ccc(Cl)c(Cl)c1` (stereo unspecified) as listed: cell number change [%]: -21
`O=S(=O)(NCc1ccccc1)c1cccs1` as listed: AC50 [1]: 18.4 µM [falling, single point]; cell number change [%]: -82.6
`Cc1nnc2sc(SCc3ccccc3)nn2c1=O` as listed: cell number change [%]: -10.5; AC50 [2]: 0.103 µM [falling, full curve, poor fit]
`Cc1cc(C)c2[nH]c(=O)c(C(c3nnnn3Cc3ccc4c(c3)OCO4)N3CCCCC3)cc2c1` (stereo unspecified) as listed: cell number change [%]: -7.64; AC50 [2]: 3.66 µM [rising, partial curve]

Next part.

Row | Structure (SMILES) | AC50 [1] | cell number change [%] | AC50 [2]
22 | CC(=O)N/C(=C\c1ccccc1)C(=O)OCC(=O)Nc1cc(S(=O)(=O)N(C)C)ccc1Cl | 2.91 µM [falling, full curve, poor fit] | -92.9 | 0.58 µM [falling, full curve]
23 | O=C(CSc1nnc(Cn2nnc3ccccc32)o1)Nc1cccc(Cl)c1 |  | -0.743 | 
24 | CCn1c(SCC(=O)Nc2cc(C)ccc2C)nc2c(c1=O)SC(C)C2 (stereo unspecified) | 0.0731 µM [rising, full curve] | 58.2 | 0.0291 µM [rising, full curve, poor fit]
25 | Cc1ccc(NC(=O)C2CCN(C(=O)c3ccco3)CC2)cc1 |  | 21.7 | 29.1 µM [rising, single point]
26 | CCOC(=O)C1=NNC(C(=O)c2ccc(C)cc2)C1c1ccc(OC)cc1 (stereo unspecified) |  |  | 2.59 µM [rising, partial curve]
27 | O=S(=O)(c1cccc2nonc12)N1CCN(c2cccc(Cl)c2)CC1 |  | 12.7 | 18.4 µM [rising, single point]
28 | Cc1cc(C)n(-c2ccnc3cc(Cl)ccc23)n1 |  |  | 29.1 µM [rising, single point]
29 | C/C(Cl)=C/Cn1c(NCCN(C)C)nc2c1c(=O)n(C)c(=O)n2C |  | 2.22 | 6.51 µM [falling, single point]
30 | COc1ccc(/C=C2/C(=N)N3N=C(CC(=O)N4CCCC4)SC3=NC2=O)cc1 | 0.0517 µM [falling, full curve, poor fit] | -34.4 | 
31 | CCNS(=O)(=O)c1ccc(NC(=O)c2cccnc2)cc1 |  | 0.372 | 
32 | CC12CCC(=O)N1C(C(=O)NCCN1C(=O)S/C(=C\c3ccccc3Cl)C1=O)CS2 (stereo unspecified) | 0.146 µM [falling, full curve, poor fit] | -20.5 | 14.6 µM [falling, partial curve]
33 | COc1cc(C(=O)NCCc2ccc3c(c2)OCCO3)ccc1OCC(=O)N1CCOCC1 | 29.1 µM [rising, single point] | 51.6 | 5.17 µM [falling, full curve, poor fit]
34 | CC(=O)N1CCc2c(sc(NC(=O)c3ccc4c(c3)OCCO4)c2C#N)C1 | 3.26 µM [rising, single point] |  | 
35 | COc1ccccc1NS(=O)(=O)c1ccc(C(=O)N2CCCC(C)C2)cc1 (stereo unspecified) |  | -26.5 | 
36 | COc1ccccc1NC(=O)N1CCOCC1 |  | -27.9 | 29.1 µM [falling, single point]
37 | Cc1nc2c3cc(F)ccc3n(Cc3ccccc3)c2s1 |  |  | 0.00461 µM [falling, full curve, poor fit]
38 | CC1CCC(NC(=O)CN2C(=O)NC3(CCCCC3C)C2=O)CC1 (stereo unspecified) |  | 6.83 | 
39 | Cc1nc(-c2nc(-c3c(C(=O)NNC(=O)Nc4cccc(Cl)c4)noc3C)cs2)cs1 | 3.26 µM [rising, single point] | 20.9 | 18.4 µM [rising, single point]
40 | CCCCCC(=O)N/N=C(\C)c1ccccn1 | 0.0651 µM [rising, partial curve, poor fit] |  | 2.06 µM [rising, partial curve]
41 | Cc1ccccc1C(=O)OCC(=O)N(C)c1c(N)n(Cc2ccccc2)c(=O)[nH]c1=O |  | 4.41 | 
42 | COc1ccc(N2CCN(CCNC(=O)c3ccc4nc5ccccc5c(=O)n4c3)CC2)cc1 |  | -23.6 | 

Row | Structure (SMILES) | AC50 [1] | cell number change [%] | AC50 [2]
43 | COc1ccc(OCC(=O)NCCCCCCNC(=O)COc2ccc(OC)cc2)cc1 |  | 14.2 | 29.1 µM [rising, single point]
44 | COc1cccc(CNC(=O)C2CCCN(S(C)(=O)=O)C2)c1 (stereo unspecified) |  | 10.2 | 
45 | COc1ccc(C)cc1S(=O)(=O)N(C)CC(=O)N1CCN(C)CC1 | 7.31 µM [falling, full curve] | -74.2 | 
46 | Cc1ccc(CCNC(=O)C2CCC(=O)N2C2CCCC2)cc1 (stereo unspecified) | 14.6 µM [falling, partial curve] | -87.3 | 29.1 µM [falling, single point]
47 | Cc1cc2c3c(c1C)C(=O)C(=O)N3C(C)(C)CC2C (stereo unspecified) |  | -30.6 | 16.4 µM [falling, single point]
48 | O=[N+]([O-])c1ccc2cn[nH]c2c1 | 0.13 µM [rising, full curve, poor fit] |  | 0.206 µM [rising, full curve]
49 | CN(C)/C=N/C(=S)Nc1ccccc1F | 2.91 µM [rising, single point] | 31.7 | 
50 | Cc1ccc(S(=O)(=O)NCCCCCC(=O)Nc2ccccc2C)cc1 |  | -8.23 | 14.6 µM [rising, partial curve, poor fit]
51 | COc1cc(OC)cc(-c2nc3nc(C)c(CCC(=O)O)c(C)n3n2)c1 |  | 8.79 | 29.1 µM [rising, single point]
52 | COc1cc(/C=C/C(=O)N2CC(C)OC(C)C2)cc(OC)c1OC (stereo unspecified) |  | 0.275 | 6.51 µM [rising, single point]
53 | O=c1c2ccccc2nc(SCCN2CCCCC2)n1CCc1ccccc1 |  | -0.289 | 3.26 µM [falling, partial curve]
54 | COc1ccc(NC(C(=O)Nc2cccc(C(C)=O)c2)c2ccccc2)cc1 (stereo unspecified) |  | 15.2 | 
55 | Clc1cccc(C2Nc3cccc4cccc(c34)N2)c1Cl | 13 µM [falling, partial curve] | -53.3 | 1.84 µM [falling, full curve]
56 | CCc1ccc(C2=CC(c3cc(Br)ccc3F)n3ncnc3N2)cc1 (stereo unspecified) |  | -13.4 | 16.4 µM [falling, single point]
57 | Cc1nnc(C)n1/N=C/c1ccc(O)cc1 |  | -29.6 | 13 µM [falling, partial curve]
58 | CCc1ccccc1NC(=O)COC(=O)C1C2CC3OC(=O)C1C3C2 (stereo unspecified) |  | 2.1 | 0.206 µM [falling, single point]
59 | COc1cccc(C(=O)NCCSCc2ccccc2Cl)c1 |  | 12.2 | 
60 | O=C(c1ccccc1)c1ccc(C(=O)N2CCCC(C(F)(F)F)C2)cc1 (stereo unspecified) | 25.9 µM [falling, partial curve] | -31.4 | 0.366 µM [falling, partial curve, poor fit]
61 | COCCn1c(C)cc(C(=O)COC(=O)c2cc3c(s2)CCC3)c1C | 29.1 µM [rising, single point] | 43.1 | 
